Assay [1] deals with HA::CEH-60(ΔPBC)::VC155 (CEH-60 with truncated PBC domain) (C. elegans). As to the kind of experiment: co-IP; anti-HA agarose beads with lysate of the heat-shock inducible BiFC strains (at least 4 mg worm protein), 4°C overnight; lysis buffer 25 mM Tris-HCl pH 7.5, 100 mM NaCl, 1 mM EDTA, 0.5% NP-40; western blot with anti-HA and anti-MYC. Background: In western blotting, separated proteins are transferred to a membrane and probed.

Assay [2] shares this target. Nature of the assay: split reporter; BiFC with Venus halves (VN173 on UNC-62, VC155 on the partner) under the heat-shock promoter hsp-16.41p in living day 1 adult C. elegans; heat shock 2 hours at 33°C, imaged 5-6 hours later; fluorescence quantified in 6 intestinal nuclei per animal.

No constants are given. Whether binding was seen depends on the method and setting. Binding seen in cells or lysates may run through a third protein. Tags and fused reporters may be left off the sequences shown.

The values below come from PMC6824563.

B1: MYC::UNC-62::VN173 (UNC-62, uncoordinated 62, MEIS-class transcription factor) (protein, UniProt Q9N5D6 1-564)
chain: MSGDSKVWAHASADTWAVQNGISTYDLDTSSIKREKRDHNEQFNDGYGPPPGSASADPASYIADPAAFYNLYTNMGGAPTSTPMMHHEMGEAMKRDKESIYAHPLYPLLVLLFEKCELATSTPRDTSRDGSTSSDVCSSASFKDDLNEFVRHTQENADKQYYVPNPQLDQIMLQSIQMLRFHLLELEKVHELCDNFCNRYVVCLKGKMPLDIVGDERASSSQPPMSPGSMGHLGHSSSPSMAGGATPMHYPPPYEPQSVPLPENAGVMGGHPMEGSSMAYSMAGMAAAAASSSSSSNQAGDHPLANGGTLHSTAGASQTLLPIAVSSPSTCSSGGLRQDSTPLSGETPMGHANGNSMDSISEAGDEFSVCGSNDDGRDSVLSDSANGSQNGKRKVPKVFSKEAITKFRAWLFHNLTHPYPSEEQKKQLAKETGLTILQVNNWFINARRRIVQPMIDQNNRAGRSGQMNVCKNRRRNRSEQSPGPSPDSGSDSGANYSPDPSSLAASTAMPYPAEFYMQRTMPYGGFPSFTNPAMPFMNPMMGFQVAPTVDALSQQWVDLSAPHE
Take B1: the binding result in assay [1] and in assay [2] was “no binding” each time.
